Our source for the cell number change and AC50 values is PubChem BioAssay AID2685 (National Center for Advancing Translational Sciences (NCATS), 2010).

A short description of this assay: qHTS Assay for Lipid Storage Modulators in Drosophila S3 Cells.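 As to cell number change: cells counted by Cell Tracker Red CMTPX staining in the red channel.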 To be noted: BODIPY lipid droplet fluorescence, 18-24 h; for cell number change: measured here: cell count max response, cells fed with added oleic acid. In short, it runs like this: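 Drosophila S3 cells loaded with oleic acid (400 uM, as added) and compounds at several concentrations; lipid droplets imaged by 488-nm laser-scanning cytometry, 500–530 nm intensity and object ratio to cell channel. Percent activity normalized to 20 uM Triacsin C.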

Where [1] appears, read: measured here: cell number channel AC50, cells fed with added oleic acid.
The mark [2] stands for this setting: measured here: lipid fluorescence (Fed channel) AC50, cells fed with added oleic acid.

Some of the results follow. Shown are side measurements of this screen, not its main read-out; they come without a call. Most of these compounds were active or inconclusive in the main read-out, so they are no random draw. Potencies come from curve fits of mixed quality, noted in brackets.

Turning to `O=C(Nc1ccc2c(c1)OCO2)C1CCN(Cc2cnn(-c3ccccc3)c2-n2cccc2)CC1`, the cell number change was found to be 51.7%. Further, under setting [1], the AC50 is 1.16 µM [rising, full curve]. Besides, the AC50 under setting [2] was 1.3 µM [rising, full curve]. Regarding `CS(=O)(=O)c1cccc(C(=O)Nc2ccccc2Cc2ccccc2)c1`, the cell number change is 0.84%. Regarding `O=C(N/N=C/c1ccc(OC(=O)c2cccs2)cc1)c1cccc(F)c1`, the cell number change is -79.2%. Also, the AC50 under setting [1] was 14.6 µM [falling, partial curve]. The AC50 under setting [2] was 14.6 µM [falling, partial curve]. `COc1ccc(OCC(=O)N(C)Cc2ccccc2)cc1`: the cell number change was -8.44%. For the same compound, the AC50 under setting [2] is 3.26 µM [falling, full curve]. Take `CCN(CC)CCCNC(=O)c1cc(-c2ccc3c(c2)OCO3)on1`: under setting [2], the AC50 was 0.58 µM [rising, single point].

In the case of `Cc1ccc(N2C(=O)C(Cl)=C(NCCO)C2=O)c(C)c1`, the cell number change is 5.83%. Further, the AC50 under setting [2] is 1.64 µM [rising, partial curve]. For `O=C(CCn1[nH]c(=O)c2ccccc2c1=O)OC1CCCCC1`, the cell number change was -27.4%. As to `COc1c(C)cc(C(=O)C2CCCN(C(=O)c3cc(C4CC4)[nH]n3)C2)cc1C` (centres undefined), the cell number change is 5.67%. Also, the AC50 under setting [1] is 6.51 µM [rising, single point]. For the same compound, the AC50 under setting [2] is 29.1 µM [falling, single point]. For `CC1CCCN(c2ccc(C(=O)OCn3nnc4ccccc4c3=O)cc2[N+](=O)[O-])C1` (centres undefined), the cell number change turned out to be 16.7%. Besides, under setting [2], the AC50 is 0.146 µM [rising, full curve, poor fit]. For `COc1ccc([C@H]2CC(=O)C=C(c3ccc(OC(F)(F)F)cc3)C2)cc1OC`, the cell number change was -36.4%. Further, the AC50 under setting [1] was 7.31 µM [falling, partial curve].

For `Nc1ccc2c(c1)Cc1cc([N+](=O)[O-])ccc1-2`, the cell number change is 8.61%. The AC50 under setting [1] is 0.092 µM [rising, full curve, poor fit]. Take `CCOc1ccc(NC(=O)NCCCSC2CCCCC2)cc1`: the cell number change is -24.1%. In addition, under setting [2], the AC50 was 0.164 µM [falling, full curve, poor fit].

For the compound `O=C(CCS(=O)(=O)c1ccc(Cl)cc1)Nc1nc(-c2cccnc2)cs1`, the cell number change turned out to be 18.5%. For the same compound, the half-maximal activity concentration (AC50) under setting [2] is 20.6 µM [rising, single point].

`O=S(=O)(Nc1ccon1)c1cc(Cl)ccc1Cl`: the cell number change was -13.5%. Moreover, the half-maximal activity concentration (AC50) under setting [2] is 0.259 µM [falling, full curve, poor fit]. On to `O=C(CCN1CCCCC1)c1ccc2c(c1)OCO2`, for which the cell number change was -54.9%. Moreover, under setting [1], the half-maximal activity concentration (AC50) was 11.6 µM [falling, partial curve, poor fit]. Moreover, under setting [2], the AC50 was 3.66 µM [falling, partial curve].

Consider `CCC1(CC)Nc2ccccc2C(=O)N1c1ccc(NC(C)=O)cc1`, for which the cell number change came out at 3.48%. Turning to `CCC(C)(C)C1CCC2(CC1)NC(=O)N(CC(=O)Nc1nc(-c3ccc(C)cc3)cs1)C2=O` (centres undefined), the cell number change is -37.7%. Besides, the AC50 under setting [2] is 7.31 µM [falling, partial curve, poor fit]. Turning to `O=C(NCc1ccccc1Cl)c1ccc2c(c1)OCO2`, the cell number change was 0.348%. Also, the concentration at half-maximal activity (AC50) under setting [1] was 0.231 µM [rising, full curve, poor fit]. `Cc1[nH]c(=O)[nH]c(=O)c1S(=O)(=O)Nc1ccc(F)cc1Cl`: the cell number change worked out at 76.1%. Moreover, the AC50 under setting [1] is 29.1 µM [rising, single point]. Regarding `CN1CCN(C(=O)CCN2C(=O)/C(=C\c3ccccc3F)SC2=S)CC1`, the cell number change worked out at 32.3%. The AC50 under setting [1] was 16.4 µM [rising, partial curve, poor fit].

Consider `COc1ccc(S(=O)(=O)N2CCN(C(=O)c3oc4ccccc4c3C)CC2)cc1`, for which the cell number change was -8.09%. Also, the AC50 under setting [2] is 1.3 µM [rising, full curve]. On to `O=C(c1ccccc1F)N1CCN(c2cnn(-c3cccc(Cl)c3)c(=O)c2Cl)CC1`, for which the cell number change was -22%. Further, the AC50 under setting [2] is 29.1 µM [rising, single point]. On to `Cc1ccc(-c2nnc(SCC(=O)N(C)C)nc2-c2ccc(C)cc2)cc1`, for which the cell number change is -2.86%. For the same compound, the half-maximal activity concentration (AC50) under setting [1] is 3.66 µM [rising, single point]. For the same compound, the AC50 under setting [2] was 0.00461 µM [falling, full curve, poor fit]. Consider `Cc1ccc(Cl)cc1N1CCN(C(=O)Cc2ccc(-n3c(=O)[nH]c4ccsc4c3=O)cc2)CC1`, for which the cell number change was 4.84%. Moreover, the half-maximal activity concentration (AC50) under setting [2] was 16.4 µM [rising, single point].

For `Cc1ccc(OC(=O)c2cccc(S(=O)(=O)N(C)C)c2)c(-n2nc3ccccc3n2)c1`, the cell number change is -6.15%. Turning to `Cc1ccc(OCC(=O)N2c3ccccc3CC2C)c([N+](=O)[O-])n1` (centres undefined), the cell number change turned out to be 1.25%. The AC50 under setting [2] was 6.51 µM [rising, single point].

`CC(=O)NC1C(=O)N=C(SCC(=O)Nc2c(C)cccc2C)NC1=O` (centres undefined): the cell number change was -36.4%. Moreover, the AC50 under setting [1] was 29.1 µM [falling, single point]. Consider `CCOc1ccc(C(C(=O)NC2CCCC2)N(C(=O)c2snc(C(N)=O)c2N)c2cccc(O)c2)cc1` (centres undefined), for which the cell number change was 15.7%. Under setting [2], the concentration at half-maximal activity (AC50) is 29.1 µM [falling, single point]. As for `COc1cc(CN2CCNC(=O)C2CC(=O)NCCCN2CCOCC2)cc(OC)c1` (centres undefined), the cell number change was -24.1%. Also, the AC50 under setting [2] is 29.1 µM [rising, single point]. With `CN(C)CCCOc1ccc2c(c1)Sc1ccccc1CC2=O`, the cell number change was -66.7%. Besides, the AC50 under setting [1] is 29.1 µM [falling, single point]. In the case of `COCCNC(=O)CC(NS(=O)(=O)c1ccc(NC(C)=O)cc1)C(C)C` (centres undefined), the AC50 under setting [2] was 29.1 µM [falling, single point]. `CC(=O)C(=[N+]=[N-])C(=O)NCc1ccccc1`: the cell number change was -20.4%. For the compound `COc1ccccc1NCC(=O)n1nc(C)cc1C`, the cell number change turned out to be 23.5%. Also, the AC50 under setting [2] is 0.00517 µM [rising, full curve, poor fit]. As to `CC(C)c1ccc(C2(C)NC(=O)N(C(C)C(=O)Nc3ccc(N4CCOCC4)cc3)C2=O)cc1` (centres undefined), the cell number change came to 0.402%. With `COc1cccc(C2=NOC(C(=O)Nc3ccc(OC)c(OC)c3)C2)c1` (centres undefined), under setting [2], the AC50 was 16.4 µM [falling, partial curve]. Consider `O=C(Nc1ccccc1N1CCOCC1)c1cc2ccccc2o1`, for which, under setting [2], the AC50 is 29.1 µM [falling, single point]. Take `COc1ccc(NC(=O)CC2C(=O)N(c3ccc(OC)cc3)C(=S)N2NC(=O)c2cccc(F)c2)cc1` (centres undefined): the AC50 was 6.51 µM [falling, single point] under setting [1] and 23.1 µM [rising, single point] under setting [2]. As to `Nc1c(C(=O)NCCN2CCOCC2)c2nc3ccccc3nc2n1CCc1ccccc1`, the cell number change is -68.2%. Further, the half-maximal activity concentration (AC50) under setting [1] is 29.1 µM [falling, single point]. Also, under setting [2], the AC50 was 1.64 µM [rising, partial curve, poor fit]. For the compound `O=c1c2ccccc2[nH]c(=S)n1C1CCCCC1`, the cell number change is -26%. Take `CCCn1c(COc2ccc(C(=O)O)cc2)nc2ccccc21`: the cell number change came to 14.1%. Also, the concentration at half-maximal activity (AC50) under setting [2] was 29.1 µM [rising, single point]. For `Oc1ccc(-c2[nH]ncc2-c2cccc3cccnc23)c(O)c1`, the cell number change was -12.5%. Moreover, the AC50 under setting [2] is 2.06 µM [rising, full curve]. As for `O=S(=O)(NC1CCCC1)c1cccc(-c2nnc(-c3ccccc3)o2)c1`, the AC50 reads like this: under setting [1], 0.13 µM [rising, full curve, poor fit]; under setting [2], 0.259 µM [rising, full curve]. With `CC(=O)Nc1c(N)c2ccccc2oc1=O`, the cell number change came out at 7.04%. Consider `CN(C)c1ccnc(-n2cccc2/C=N/OCc2cccc(F)c2)c1C#N`, for which the cell number change turned out to be 182%. Moreover, the AC50 under setting [1] is 8.2 µM [rising, partial curve]. Further, the AC50 under setting [2] was 9.2 µM [rising, partial curve]. Consider `O=C(Oc1cccc(NC(=O)c2ccco2)c1)c1ccc(Br)c(S(=O)(=O)N2CCCCC2)c1`, for which the cell number change is -11.4%. For the compound `CCOC(=O)CCNC(=O)c1ccccc1Br`, the cell number change was -2.93%. With `COc1ccc(N=C2S/C(=C\c3ccc(N4CCOCC4)o3)C(=O)N2CCc2c[nH]c3ccccc23)cc1`, the cell number change was -41.9%. Under setting [1], the concentration at half-maximal activity (AC50) was 32.6 µM [falling, partial curve, poor fit]. In addition, the half-maximal activity concentration (AC50) under setting [2] is 20.6 µM [falling, partial curve]. With `COc1ccc(CN2CCN(C(=O)c3ccc(S(=O)(=O)NCc4ccco4)cc3)CC2)cc1`, the cell number change is -70.1%. In addition, the AC50 under setting [1] was 20.6 µM [falling, single point]. Consider `O=C(NCCC1CCCCN1S(=O)(=O)c1ccccc1)C(=O)NCc1cccnc1` (centres undefined), for which the cell number change is 1.75%. Further, the AC50 under setting [2] was 5.8 µM [falling, full curve, poor fit]. Turning to `Nc1nnc(Cc2ccc(F)cc2)s1`, the cell number change came to 1.35%. Turning to `COc1cc(C(=O)NCCc2ccc(S(N)(=O)=O)cc2)ccc1OCc1c(C)noc1C`, the cell number change is -1.78%. The AC50 under setting [1] is 3.66 µM [falling, single point]. Also, the AC50 under setting [2] was 3.66 µM [falling, partial curve]. In the case of `C/C(=N\NC(=O)COc1ccccc1F)c1cc2ccccc2o1`, the cell number change was -10%. In addition, under setting [1], the AC50 was 2.31 µM [rising, single point]. In addition, the AC50 under setting [2] is 2.31 µM [rising, partial curve].

Turning to `COc1cc(-c2nnc(CSc3nc4ccccc4s3)o2)cc(OC)c1OC`, the cell number change was -16.3%. For `Cc1[nH]nc(Nc2ccc(C(C)C)cc2)c1[N+](=O)[O-]`, the cell number change was determined as 5.12%. In addition, the AC50 under setting [2] was 0.411 µM [rising, full curve]. Take `Cc1nc(-c2ccccc2)cn2c1nc1ccccc12`: the cell number change is -18.2%. Besides, the half-maximal activity concentration (AC50) under setting [1] is 0.103 µM [falling, full curve, poor fit]. In addition, the AC50 under setting [2] is 8.2 µM [falling, partial curve]. `CNc1ccccc(-c2ccc3cc4c(cc3n2)OCO4)c1=O`: the cell number change is 22.1%. Further, under setting [2], the AC50 is 7.31 µM [rising, partial curve]. As to `Cc1cccc(C)c1NC(=O)COC(=O)C1CC(=O)N(Cc2ccccc2)C1` (centres undefined), the AC50 is 0.0517 µM [rising, full curve, poor fit] under setting [1] and 0.058 µM [rising, partial curve, poor fit] under setting [2]. Turning to `COc1cccc(C2=NOC(C(=O)Nc3ccc4c(c3)OCO4)C2)c1OC` (centres undefined), the cell number change came out at 9.01%. Further, the concentration at half-maximal activity (AC50) under setting [1] is 1.84 µM [rising, partial curve, poor fit]. `Cc1ccc2c(c1)C1(C(=O)N2C)N2CC3(C)CN1CC(C)(C2)C3=O` (centres undefined): the cell number change was 30.3%. Also, under setting [1], the AC50 is 13 µM [rising, single point]. Also, under setting [2], the AC50 is 29.1 µM [rising, single point].
